Results are given in words; binding and its absence hold for the method and conditions named. Binding seen in cells or lysates may run through a third protein. A yes stands for co-enrichment or nearness to the bait. Other partners may have been found. Tags and fused reporters may be left off the sequences shown. Values belong to the binder of their own block, whether it stands above or below them.
Target: T1, Dhh1−GFP (S. cerevisiae (endogenous in BY4741-derived yeast)) (UniProt P39517)
T1 sequence: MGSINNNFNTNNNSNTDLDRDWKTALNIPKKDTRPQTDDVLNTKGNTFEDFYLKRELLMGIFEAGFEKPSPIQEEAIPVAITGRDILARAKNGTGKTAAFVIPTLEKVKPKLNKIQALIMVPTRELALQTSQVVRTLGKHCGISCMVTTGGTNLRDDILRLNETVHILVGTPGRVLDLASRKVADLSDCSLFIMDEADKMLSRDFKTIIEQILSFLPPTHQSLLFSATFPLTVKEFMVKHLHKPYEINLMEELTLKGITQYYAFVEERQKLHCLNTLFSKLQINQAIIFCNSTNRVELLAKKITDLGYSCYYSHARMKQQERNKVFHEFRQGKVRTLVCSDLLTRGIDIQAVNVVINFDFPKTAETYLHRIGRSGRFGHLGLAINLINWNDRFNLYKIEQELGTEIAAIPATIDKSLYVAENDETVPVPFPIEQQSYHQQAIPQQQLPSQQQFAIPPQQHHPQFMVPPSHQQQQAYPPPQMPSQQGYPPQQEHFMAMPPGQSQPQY
Experiment: affinity purification with mass spectrometry; Dhh1−GFP captured by anti-GFP IgG cross-linked to Protein-G Dynabeads from cleared lysate of cryo-ground yeast; RB buffer (30 mM K-Hepes pH 7.4, 150 mM KCl, 2 mM MgCl2, 0.2% NP-40, 0.1% Tween-20, 1 mM DTT, RNase inhibitor), 30 min at 4°; five purifications (two +glucose YPD, three 30 min −glucose YEP); hits filtered by SAINT against CRAPome controls

binding: binds
B1: Stm1 (protein, UniProt P39015 1-273)
chain: MSNPFDLLGNDVEDADVVVLPPKEIVKSNTSSKKADVPPPSADPSKARKNRPRPSGNEGAIRDKTAGRRNNRSKDVTDSATTKKSNTRRATDRHSRTGKTDTKKKVNQGWGDDKKELSAEKEAQADAAAEIAEDAAEAEDAGKPKTAQLSLQDYLNQQANNQFNKVPEAKKVELDAERIETAEKEAYVPATKVKNVKSKQLKTKEYLEFDATFVESNTRKNFGDRNNNSRNNFNNRRGGRGARKGNNTANATNSANTVQKNRNIDVSNLPSLA

binding: binds
B2: Sse1 (protein, UniProt P32589 1-693)
chain: MSTPFGLDLGNNNSVLAVARNRGIDIVVNEVSNRSTPSVVGFGPKNRYLGETGKNKQTSNIKNTVANLKRIIGLDYHHPDFEQESKHFTSKLVELDDKKTGAEVRFAGEKHVFSATQLAAMFIDKVKDTVKQDTKANITDVCIAVPPWYTEEQRYNIADAARIAGLNPVRIVNDVTAAGVSYGIFKTDLPEGEEKPRIVAFVDIGHSSYTCSIMAFKKGQLKVLGTACDKHFGGRDFDLAITEHFADEFKTKYKIDIRENPKAYNRILTAAEKLKKVLSANTNAPFSVESVMNDVDVSSQLSREELEELVKPLLERVTEPVTKALAQAKLSAEEVDFVEIIGGTTRIPTLKQSISEAFGKPLSTTLNQDEAIAKGAAFICAIHSPTLRVRPFKFEDIHPYSVSYSWDKQVEDEDHMEVFPAGSSFPSTKLITLNRTGDFSMAASYTDITQLPPNTPEQIANWEITGVQLPEGQDSVPVKLKLRCDPSGLHTIEEAYTIEDIEVEEPIPLPEDAPEDAEQEFKKVTKTVKKDDLTIVAHTFGLDAKKLNELIEKENEMLAQDKLVAETEDRKNTLEEYIYTLRGKLEEEYAPFASDAEKTKLQGMLNKAEEWLYDEGFDSIKAKYIAKYEELASLGNIIRGRYLAKEEEKKQAIRSKQEASQMAAMAEKLAAQRKAEAEKKEEKKDTEGDVDMD

binding: binds
B3: Bat1 (protein, UniProt P38891 17-393)
chain: LATGAPLDASKLKITRNPNPSKPRPNEELVFGQTFTDHMLTIPWSAKEGWGTPHIKPYGNLSLDPSACVFHYAFELFEGLKAYRTPQNTITMFRPDKNMARMNKSAARICLPTFESEELIKLTGKLIEQDKHLVPQGNGYSLYIRPTMIGTSKGLGVGTPSEALLYVITSPVGPYYKTGFKAVRLEATDYATRAWPGGVGDKKLGANYAPCILPQLQAAKRGYQQNLWLFGPEKNITEVGTMNVFFVFLNKVTGKKELVTAPLDGTILEGVTRDSVLTLARDKLDPQEWDINERYYTITEVATRAKQGELLEAFGSGTAAVVSPIKEIGWNNEDIHVPLLPGEQCGALTKQVAQWIADIQYGRVNYGNWSKTVADLN

binding: binds
B4: Def1 (protein, UniProt P35732 1-738)
chain: MSTQFRKSNHNSHSSKKLNPALKSKIDTLTELFPDWTSDDLIDIVQEYDDLETIIDKITSGAVTRWDEVKKPAKKEKYEKKEQQHSYVPQQHLPNPEDDITYKSSNNSNSFTSTKHNSSNNYTQARNKKKVQTPRAHTTGKHVNLDKGKHVPSKPVSNTTSWAAAVSVDTKHDVPQDSNDNNNEELEAQGQQAQEKNQEKEQEEQQQQEGHNNKEEHKQIEQPSLSSKKTTSRTSASQPKKMSWAAIATPKPKAVKKTESPLENVAELKKEISDIKKDDQKSEASEEKVNEQETSAQEQEEETAEPSEENEDRVPEVDGEEVQEEAEKKEQVKEEEQTAEELEQEQDNVAAPEEEVTVVEEKVEISAVISEPPEDQANTVPQPQQQSQQPQQPQQPQQPQQPQQPQQQQQPQQPQQPQQQLQQQQQQQQQPVQAQAQAQEEQLSQNYYTQQQQQQYAQQQHQLQQQYLSQQQQYAQQQQQHPQPQSQQPQSQQSPQSQKQGNNVAAQQYYMYQNQFPGYSYPGMFDSQGYAYGQQYQQLAQNNAQTSGNANQYNFQQGYGQAGANTAAANLTSAAAAAAASPATAHAQPQQQQPYGGSFMPYYAHFYQQSFPYGQPQYGVAGQYPYQLPKNNYNYYQTQNGQEQQSPNQGVAQHSEDSQQKQSQQQQQQQPQGQPQPEVQMQNGQPVNPQQQMQFQQYYQFQQQQQQAAAAAAAAAQQGVPYGYNGYDYNSKNSRGFY

binding: binds
B5: Ubp3 (protein, UniProt Q01477 1-912)
chain: MNMQDANKEESYSMYPKTSSPPPPTPTNMQIPIYQAPLQMYGYTQAPYLYPTQIPAYSFNMVNQNQPIYHQSGSPHHLPPQNNINGGSTTNNNNINKKKWHSNGITNNNGSSGNQGANSSGSGMSYNKSHTYHHNYSNNHIPMMASPNSGSNAGMKKQTNSSNGNGSSATSPSYSSYNSSSQYDLYKFDVTKLKNLKENSSNLIQLPLFINTTEAEFAAASVQRYELNMKALNLNSESLENSSVEKSSAHHHTKSHSIPKHNEEVKTETHGEEEDAHDKKPHASKDAHELKKKTEVKKEDAKQDRNEKVIQEPQATVLPVVDKKEPEESVEENTSKTSSPSPSPPAAKSWSAIASDAIKSRQASNKTVSGSMVTKTPISGTTAGVSSTNMAAATIGKSSSPLLSKQPQKKDKKYVPPSTKGIEPLGSIALRMCFDPDFISYVLRNKDVENKIPVHSIIPRGIINRANICFMSSVLQVLLYCKPFIDVINVLSTRNTNSRVGTSSCKLLDACLTMYKQFDKETYEKKFLENADDAEKTTESDAKKSSKSKSFQHCATADAVKPDEFYKTLSTIPKFKDLQWGHQEDAEEFLTHLLDQLHEELISAIDGLTDNEIQNMLQSINDEQLKVFFIRNLSRYGKAEFIKNASPRLKELIEKYGVINDDSTEENGWHEVSGSSKRGKKTKTAAKRTVEIVPSPISKLFGGQFRSVLDIPNNKESQSITLDPFQTIQLDISDAGVNDLETAFKKFSEYELLPFKSSSGNDVEAKKQTFIDKLPQVLLIQFKRFSFINNVNKDNAMTNYNAYNGRIEKIRKKIKYGHELIIPEESMSSITLKNNTSGIDDRRYKLTGVIYHHGVSSDGGHYTADVYHSEHNKWYRIDDVNITELEDDDVLKGGEEASDSRTAYILMYQKRN

binding: binds
B6: Hom6 (protein, UniProt P31116 1-359)
chain: MSTKVVNVAVIGAGVVGSAFLDQLLAMKSTITYNLVLLAEAERSLISKDFSPLNVGSDWKAALAASTTKTLPLDDLIAHLKTSPKPVILVDNTSSAYIAGFYTKFVENGISIATPNKKAFSSDLATWKALFSNKPTNGFVYHEATVGAGLPIISFLREIIQTGDEVEKIEGIFSGTLSYIFNEFSTSQANDVKFSDVVKVAKKLGYTEPDPRDDLNGLDVARKVTIVGRISGVEVESPTSFPVQSLIPKPLESVKSADEFLEKLSDYDKDLTQLKKEAATENKVLRFIGKVDVATKSVSVGIEKYDYSHPFASLKGSDNVISIKTKRYTNPVVIQGAGAGAAVTAAGVLGDVIKIAQRL

binding: binds
B7: Asc1 (protein, UniProt P38011 1-319)
chain: MASNEVLVLRGTLEGHNGWVTSLATSAGQPNLLLSASRDKTLISWKLTGDDQKFGVPVRSFKGHSHIVQDCTLTADGAYALSASWDKTLRLWDVATGETYQRFVGHKSDVMSVDIDKKASMIISGSRDKTIKVWTIKGQCLATLLGHNDWVSQVRVVPNEKADDDSVTIISAGNDKMVKAWNLNQFQIEADFIGHNSNINTLTASPDGTLIASAGKDGEIMLWNLAAKKAMYTLSAQDEVFSLAFSPNRYWLAAATATGIKVFSLDPQYLVDDLRPEFAGYSKAAEPHAVSLAWSADGQTLFAGYTDNVIRVWQVMTAN

binding: binds
B8: Mkt1 (protein, UniProt P40850 1-830)
chain: MAIKSLESFLFERGLVGSYAIEALNNCTLDIDVNHYVSRLLTNKREQYLDAIGGFPTSLKMYLESDLKIFKDFNITPIFVFNGGLTYNQLEASGHFTAASASASISSTTTSSSGTNATTRSNTESVLLQRSRGWTQWNNLISSNQNSYIDQPIQPQEPFRHNTTIDSKAYQNDLIAYFIEHGYMYQVAPYSSWFQLAYLLNSAYIDAIYGPTDCLMLDCVDRFILGMEFPNKEFRFIDRSRVMKDLGCTHEEFIDIAMAVGNDLQPTTLPPLQIYPVPQLFDIALEMVLNTGTNFYAYQLSTTLQNDSKENIQNYQRGISALRYMPVLKDTGKVELFVQEIVVSEEDSEKNNKDGKKSNLSSPSSASSSASPATTVTKNASEKLTYEKSSTKEVRKPRDIPNDVHDFIGQMLPHEYYFYRSIGLVTGKLFDAIVTGVYPEEPPLGGGSSTSYKKLVSKSVEIFKNKEINLLTQPINRYYQIKQIKQVKWYAANEPTTLTNRMSPSMFETINHLIVKTETSDEKEFSISEFITTINGSSNMAKDFISEKVIFPNSVPIESKLNSPFNLLSTNFLRLLVLLEFFTFDFKEKLLEPTRWGEVFLKLNELNIDSKYHESVIIFLVFLKCDVLKLDEEVQPPAPSALSQATLRSYPEESLYVLLITRVLTLFQVDQKPSNYHGPIDKKTLIFRDHLSFIKENLNELFEAVLISSLTSGEFNRLSLDNFGWARKIVRYLPFKLDSPNTIMAMMWEFFLQKYLHNGNAKNDALSLVATEFNTYKSTPNLDEQFVESHRFLLEISKVMQELNAAKLIDENVFKLFTKAVEFTTTALSS

binding: binds
B9: Gln1 (protein, UniProt P32288 1-370)
chain: MAEASIEKTQILQKYLELDQRGRIIAEYVWIDGTGNLRSKGRTLKKRITSIDQLPEWNFDGSSTNQAPGHDSDIYLKPVAYYPDPFRRGDNIVVLAACYNNDGTPNKFNHRHEAAKLFAAHKDEEIWFGLEQEYTLFDMYDDVYGWPKGGYPAPQGPYYCGVGAGKVYARDMIEAHYRACLYAGLEISGINAEVMPSQWEFQVGPCTGIDMGDQLWMARYFLHRVAEEFGIKISFHPKPLKGDWNGAGCHTNVSTKEMRQPGGMKYIEQAIEKLSKRHAEHIKLYGSDNDMRLTGRHETASMTAFSSGVANRGSSIRIPRSVAKEGYGYFEDRRPASNIDPYLVTGIMCETVCGAIDNADMTKEFERESS

binding: binds
B10: Rps30A (protein, UniProt P0CX33 1-63)
chain: MAKVHGSLARAGKVKSQTPKVEKTEKPKKPKGRAYKRLLYTRRFVNVTLVNGKRRMNPGPSVQ
